Experimental data from patent publication US7795249B2, “Certain pyrazoline derivatives with kinase inhibitory activity” (Millennium Pharmaceuticals, Inc., priority 2006, dated 2010).
Some of these results come from one statement about several compounds together.

By UniProt entry, the sequences of proteins in these tests, tags left out.
UniProt P15056, whole entry, stated change not applied: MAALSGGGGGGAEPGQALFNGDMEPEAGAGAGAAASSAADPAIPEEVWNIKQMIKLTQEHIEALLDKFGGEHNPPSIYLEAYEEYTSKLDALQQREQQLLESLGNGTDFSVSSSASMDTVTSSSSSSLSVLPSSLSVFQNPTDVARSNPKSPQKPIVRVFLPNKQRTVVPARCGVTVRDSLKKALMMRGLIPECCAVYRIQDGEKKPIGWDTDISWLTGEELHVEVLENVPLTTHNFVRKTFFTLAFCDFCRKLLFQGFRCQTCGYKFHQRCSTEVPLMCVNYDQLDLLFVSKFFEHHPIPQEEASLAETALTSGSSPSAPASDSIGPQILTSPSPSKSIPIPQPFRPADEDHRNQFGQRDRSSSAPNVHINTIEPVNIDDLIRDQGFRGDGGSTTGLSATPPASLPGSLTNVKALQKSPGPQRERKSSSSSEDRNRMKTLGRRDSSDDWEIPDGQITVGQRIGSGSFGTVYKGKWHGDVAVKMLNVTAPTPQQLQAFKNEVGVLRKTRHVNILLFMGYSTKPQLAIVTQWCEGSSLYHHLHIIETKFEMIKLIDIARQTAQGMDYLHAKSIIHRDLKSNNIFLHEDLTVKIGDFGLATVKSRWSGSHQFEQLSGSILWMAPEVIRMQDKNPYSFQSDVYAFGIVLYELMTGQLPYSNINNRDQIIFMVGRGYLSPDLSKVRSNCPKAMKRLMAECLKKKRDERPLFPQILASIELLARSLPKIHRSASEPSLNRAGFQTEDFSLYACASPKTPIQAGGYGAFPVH

Molecular target: T1, B-Raf (V599E or Wild Type) (Homo sapiens, UniProt P15056)
T1 construct: Enzymatically active wild-type B-Raf was purchased from Upstate (cat#14-530); Enzymatically active mutant B-Raf(V599E) was purified in house; fused on or other part: None is printed; By knowledge, Upstate 14-530 is an N-terminally GST-tagged truncated human B-Raf; the tag is not part of the key
Test: B-Raf Flash Plate Assay
Format: biochemical
Details: bin: less than or equal to 100 nM

| SMILES | IC50 [nM] |
| --- | --- |
| O=C(c1cnc(NCc2ccccc2)s1)N1N=C(c2cccnc2)CC1c1ccccc1O (centres unmarked) [Compound I-182, 2-(1-{[2-(benzylamino)-1,3-thiazol-5-yl]carbonyl}-3-pyridin-3-yl-4,5-dihydro-1H-pyrazol-5-yl)phenol] | ≤ 100 |
| Cc1nc(-c2ccc(C(=O)N3N=C(c4cccnc4)CC3c3ccccc3O)s2)cs1 (centres unmarked) [Compound I-134, 2-(1-{[5-(2-methyl-1,3-thiazol-4-yl)-2-thienyl]carbonyl}-3-pyridin-3-yl-4,5-dihydro-1H-pyrazol-5-yl)phenol] | ≤ 100 |
| O=C(Nc1ccc(-n2ccnc2)cc1)N1N=C(c2cccnc2)CC1c1ccccc1O (centres unmarked) [Compound I-216, 5-(2-hydroxyphenyl)-N-[4-(1H-imidazol-1-yl)phenyl]-3-pyridin-3-yl-4,5-dihydro-1H-pyrazole-1-carboxamide] | ≤ 100 |
| O=C(c1cc(-c2ccccc2O)on1)N1N=C(c2cccnc2)CC1c1ccccc1O (centres unmarked) [Compound I-174, 2-(1-{[5-(2-hydroxyphenyl)isoxazol-3-yl]carbonyl}-3-pyridin-3-yl-4,5-dihydro-1H-pyrazol-5-yl)phenol] | ≤ 100 |
| Cc1c(NC(=O)N2N=C(c3cccnc3)CC2c2ccccc2O)cnn1-c1ccccc1 (centres unmarked) [Compound I-372, 5-(2-hydroxyphenyl)-N-(5-methyl-1-phenyl-1H-pyrazol-4-yl)-3-pyridin-3-yl-4,5-dihydro-1H-pyrazole-1-carboxamide] | ≤ 100 |
| O=C(c1ccc(-c2nn[nH]n2)s1)N1N=C(c2cccnc2)CC1c1c(O)cccc1F (centres unmarked) [Compound I-226, 2-(3-pyridin-3-yl-1-{[5-(2H-tetrazol-5-yl)-2-thienyl]carbonyl}-4,5-dihydro-1H-pyrazol-5-yl)phenol] | ≤ 100 |
| O=C(NC1(c2ccc(Cl)cc2)CCCCC1)N1N=C(c2cccnc2)CC1c1ccccc1O (centres unmarked) [Compound I-366, N-[1-(4-chlorophenyl)cyclohexyl]-5-(2-hydroxyphenyl)-3-pyridin-3-yl-4,5-dihydro-1H-pyrazole-1-carboxamide] | ≤ 100 |
| O=C(c1cccc(-c2ccccn2)c1)N1N=C(c2cccnc2)CC1c1ccccc1O (centres unmarked) [Compound I-89, 2-[3-pyridin-3-yl-1-(3-pyridin-2-ylbenzoyl)-4,5-dihydro-1H-pyrazol-5-yl]phenol] | ≤ 100 |
| O=C(c1cccc(-n2cccn2)c1)N1N=C(c2cccnc2)CC1c1ccccc1O (centres unmarked) [Compound I-39, 2-{1-[3-(1H-pyrazol-1-yl)benzoyl]-3-pyridin-3-yl-4,5-dihydro-1H-pyrazol-5-yl}phenol] | ≤ 100 |
| Cc1occc1C(=O)NCc1ccc(C(=O)N2N=C(c3cccnc3)CC2c2ccccc2O)o1 (centres unmarked) [Compound I-62, N-[(5-{[5-(2-hydroxyphenyl)-3-pyridin-3-yl-4,5-dihydro-1H-pyrazol-1-yl]carbonyl}-2-furyl)methyl]-2-methyl-3-furamide] | ≤ 100 |
| O=C(Nc1ccccc1S(=O)(=O)c1ccccc1)N1N=C(c2cccnc2)CC1c1ccccc1O (centres unmarked) [Compound I-380, 5-(2-hydroxyphenyl)-N-[2-(phenylsulfonyl)phenyl]-3-pyridin-3-yl-4,5-dihydro-1H-pyrazole-1-carboxamide] | ≤ 100 |
| Cc1nc(-c2cnccn2)sc1C(=O)N1N=C(c2cccnc2)CC1c1ccccc1O (centres unmarked) [Compound I-90, 2-{1-[(4-methyl-2-pyrazin-2-yl-1,3-thiazol-5-yl)carbonyl]-3-pyridin-3-yl-4,5-dihydro-1H-pyrazol-5-yl}phenol] | ≤ 100 |
| COc1ccc(-c2ccc(C(=O)N3N=C(c4cccnc4)CC3c3ccccc3O)o2)cc1 (centres unmarked) [Compound I-20, 2-{1-[5-(4-methoxyphenyl)-2-furoyl]-3-pyridin-3-yl-4,5-dihydro-1H-pyrazol-5-yl}phenol] | ≤ 100 |
| Cc1nc(-c2cccnc2)sc1C(=O)N1N=C(c2cccnc2)CC1c1ccccc1O (centres unmarked) [Compound I-110, 2-{1-[(4-methyl-2-pyridin-3-yl-1,3-thiazol-5-yl)carbonyl]-3-pyridin-3-yl-4,5-dihydro-1H-pyrazol-5-yl}phenol] | ≤ 100 |
| N#Cc1ccc(-c2ncc(C(=O)N3N=C(c4cccnc4)CC3c3ccccc3O)s2)cc1 (centres unmarked) [Compound I-19, 4-(5-{[5-(2-hydroxyphenyl)-3-pyridin-3-yl-4,5-dihydro-1H-pyrazol-1-yl]carbonyl}-1,3-thiazol-2-yl)benzonitrile] | ≤ 100 |
| NCCc1ccccc1-c1ccc(C(=O)N2N=C(c3cccnc3)CC2c2ccccc2O)s1 (centres unmarked) [Compound I-231, 2-[1-({5-[2-(2-aminoethyl)phenyl]-2-thienyl}carbonyl)-3-pyridin-3-yl-4,5-dihydro-1H-pyrazol-5-yl]phenol] | ≤ 100 |
| O=C(NC1CCN(Cc2ccccc2)CC1)N1N=C(c2cccnc2)CC1c1ccccc1O (centres unmarked) [Compound I-313, N-(1-benzylpiperidin-4-yl)-5-(2-hydroxyphenyl)-3-pyridin-3-yl-4,5-dihydro-1H-pyrazole-1-carboxamide] | ≤ 100 |
| CNCc1ccccc1-c1ccc(C(=O)N2N=C(c3cccnc3)CC2c2c(O)cccc2F)s1 (centres unmarked) [Compound I-340, 3-fluoro-2-{1-[(5-{2-[(methylamino)methyl]phenyl}-2-thienyl)carbonyl]-3-pyridin-3-yl-4,5-dihydro-1H-pyrazol-5-yl}phenol] | ≤ 100 |

| SMILES | IC50 [nM] |
| --- | --- |
| O=C(c1ccc(-c2ccc(CN3CCNCC3)cc2)s1)N1N=C(c2cccnc2)CC1c1ccccc1O (centres unmarked) [Compound I-79, 2-[1-({5-[4-(piperazin-1-ylmethyl)phenyl]-2-thienyl}carbonyl)-3-pyridin-3-yl-4,5-dihydro-1H-pyrazol-5-yl]phenol] | ≤ 100 |
| O=C(c1ccc(-c2ccccn2)s1)N1N=C(c2cccnc2)CC1c1c(O)cccc1F (centres unmarked) [Compound I-86, 3-fluoro-2-{3-pyridin-3-yl-1-[(5-pyridin-2-yl-2-thienyl)carbonyl]-4,5-dihydro-1H-pyrazol-5-yl}phenol] | ≤ 100 |
| Cc1oc(-c2ccccc2)cc1C(=O)N1N=C(c2cccnc2)CC1c1ccccc1O (centres unmarked) [Compound I-112, 2-[1-(2-methyl-5-phenyl-3-furoyl)-3-pyridin-3-yl-4,5-dihydro-1H-pyrazol-5-yl]phenol] | ≤ 100 |
| O=C1NCc2c1cccc2-c1ccc(C(=O)N2N=C(c3cccnc3)CC2c2ccccc2O)s1 (centres unmarked) [Compound I-223, 4-(5-{[5-(2-hydroxyphenyl)-3-pyridin-3-yl-4,5-dihydro-1H-pyrazol-1-yl]carbonyl}-2-thienyl)isoindolin-1-one] | ≤ 100 |
| O=C(c1cc(-c2ccccc2Cl)n[nH]1)N1N=C(c2cccnc2)CC1c1ccccc1O (centres unmarked) [Compound I-31, 2-(1-{[3-(2-chlorophenyl)-1H-pyrazol-5-yl]carbonyl}-3-pyridin-3-yl-4,5-dihydro-1H-pyrazol-5-yl)phenol] | ≤ 100 |
| O=C(c1ccc(NS(=O)(=O)Cc2ccccc2)cc1)N1N=C(c2cccnc2)CC1c1ccccc1O (centres unmarked) [Compound I-107] | ≤ 100 |
| O=C(c1ccc(-c2ccc3c(c2)CCNC3)s1)N1N=C(c2cccnc2)CC1c1ccccc1O (centres unmarked) [Compound I-260, 2-(3-pyridin-3-yl-1-{[5-(1,2,3,4-tetrahydroisoquinolin-6-yl)-2-thienyl]carbonyl}-4,5-dihydro-1H-pyrazol-5-yl)phenol] | ≤ 100 |
| O=C(Nc1ccc(C2CCCCC2)cc1)N1N=C(c2cccnc2)CC1c1ccccc1O (centres unmarked) [Compound I-250, N-(4-cyclohexylphenyl)-5-(2-hydroxyphenyl)-3-pyridin-3-yl-4,5-dihydro-1H-pyrazole-1-carboxamide] | ≤ 100 |
| O=C(c1cnn(-c2ccccn2)c1)N1N=C(c2cccnc2)CC1c1c(O)cccc1F (centres unmarked) [Compound I-312, 3-fluro-2-{3-pyridin-3-yl-1-[(1-pyridin-2-yl-1H-pyrazol-4-yl)carbonyl]-4,5-dihydro-1H-pyrazol-5-yl}phenol] | ≤ 100 |
| Cc1cncc(C2=NN(C(=O)c3ccc(-c4ccccn4)s3)C(c3ccccc3O)C2)c1 (centres unmarked) [Compound I-320, 2-{3-(5-methylpyridin-3-yl)-1-[(5-pyridin-2-yl-2-thienyl)carbonyl]-4,5-dihydro-1H-pyrazol-5-yl}phenol] | ≤ 100 |
| O=C(c1ccc(-c2ccccn2)s1)N1N=C(c2cccnc2)CC1c1cccc(F)c1O (centres unmarked) [Compound I-114, 2-fluoro-6-{3-pyridin-3-yl-1-[(5-pyridin-2-yl-2-thienyl)carbonyl]-4,5-dihydro-1H-pyrazol-5-yl}phenol] | ≤ 100 |
| NCc1ccccc1-c1ccc(C(=O)N2N=C(c3cccnc3)CC2c2c(O)cccc2Cl)s1 (centres unmarked) [Compound I-390, 2-[1-({5-[2-(aminomethyl)phenyl]-2-thienyl}carbonyl)-3-pyridin-3-yl-4,5-dihydro-1H-pyrazol-5-yl]-3-chlorophenol] | ≤ 100 |
| O=C(c1cc(-c2ccccc2)on1)N1N=C(c2cccnc2)CC1c1ccccc1O (centres unmarked) [Compound I-109, 2-{1-[(5-phenylisoxazol-3-yl)carbonyl]-3-pyridin-3-yl-4,5-dihydro-1H-pyrazol-5-yl}phenol] | ≤ 100 |
| O=C(c1ccc(-c2cncnc2)s1)N1N=C(c2cccnc2)CC1c1ccccc1O (centres unmarked) [Compound I-139, 2-{3-pyridin-3-yl-1-[(5-pyrimidin-5-yl-2-thienyl)carbonyl]-4,5-dihydro-1H-pyrazol-5-yl}phenol] | ≤ 100 |
| O=C(Nc1csc(-c2ccccc2)n1)N1N=C(c2cccnc2)CC1c1ccccc1O (centres unmarked) [Compound I-327, 5-(2-hydroxyphenyl)-N-[4-(iH-pyrazol-1-yl)phenyl]-3-pyridin-3-yl-4,5-dihydro-1H-pyrazole-1-carboxamide] | ≤ 100 |
| CCCn1cc(-c2ccc(C(=O)N3N=C(c4cccnc4)CC3c3ccccc3O)s2)cn1 (centres unmarked) [Compound I-167, 2-(1-{[5-(1-propyl-1H-pyrazol-4-yl)-2-thienyl]carbonyl}-3-pyridin-3-yl-4,5-dihydro-1H-pyrazol-5-yl)phenol] | ≤ 100 |
| Cc1cncc(C2=NN(C(=O)c3ccc(-c4ccccc4CN)s3)C(c3ccccc3O)C2)c1 (centres unmarked) [Compound I-280, 2-[1-({5-[2-(aminomethyl)phenyl]-2-thienyl}carbonyl)-3-(5-methylpyridin-3-yl)-4,5-dihydro-1H-pyrazol-5-yl]phenol] | ≤ 100 |
